Series [1] deals with IFN-gamma (UniProt P01579). Nature of the series: graphene field-effect transistor. Particulars: artificial tears, Tween 80 passivated; 5'-NH2; Artificial tears (Alcon) on aptamer-modified graphene FET, 0.05% Tween 80 passivation; protein up to 500 nM; salt and temperature not stated; commercial protein; single-stranded DNA.
Series [2] deals with IFN-gamma (UniProt P01579). Nature of the series: graphene field-effect transistor, time-resolved. Particulars: artificial tears, same concentration as TNF-alpha; 5'-NH2; Artificial tears (Alcon) on aptamer-modified graphene FET, 0.05% Tween 80 passivation; protein up to 500 nM; salt and temperature not stated; commercial protein; single-stranded DNA.
Series [3] deals with interleukin-002 (IL-002) (human) (UniProt P60568). The series is described as follows: graphene field-effect transistor, time-resolved. Particulars: artificial tears, same concentration as TNF-alpha; 5'-NH2; Artificial tears (Alcon) on aptamer-modified graphene FET, 0.05% Tween 80 passivation; protein up to 500 nM; salt and temperature not stated; commercial protein; single-stranded DNA.

By UniProt entry, the sequences of proteins in these tests, tags left out. Residues count along the entry.
UniProt P01579, 24-161: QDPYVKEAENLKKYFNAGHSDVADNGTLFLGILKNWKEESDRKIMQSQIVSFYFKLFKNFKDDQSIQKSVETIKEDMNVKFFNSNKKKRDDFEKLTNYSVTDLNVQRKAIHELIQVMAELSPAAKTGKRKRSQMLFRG
UniProt P60568, 21-153: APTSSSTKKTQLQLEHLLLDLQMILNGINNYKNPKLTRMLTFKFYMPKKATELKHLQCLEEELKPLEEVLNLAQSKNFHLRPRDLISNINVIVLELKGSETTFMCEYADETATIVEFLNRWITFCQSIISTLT

Construct, isoform or probe ends are uncertain for at least one entry. For part of these data: The direction of at least one scale is not stated here. Some results are limits rather than exact numbers.

Usually Kd stands for the free concentration of one partner at which half of the binding sites on the other are occupied at equilibrium, for simple one-to-one binding. For “GGGGTTGTTTGTGTTGGGTGTTGTGT [IFN-gamma aptamer]”, in the series with IFN-gamma [1], the dissociation constant (Kd) was found to be 7.36 nM. On to “TGGTGGATGGCGCAGTCGGCGACAA [TNF-alpha aptamer]”, for which the binding signal (% of TNF-alpha signal) (in the series with IFN-gamma [2]; in series [3]) was < 15 each time.

(Values after article PMC7466379.)
